## Primary screen of a compound library

Source: ChEMBL document CHEMBL3988442, “University of Dundee, Small-Polar-MMV Screening Library” (2021).

A: 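Whole-cell growth test on Mycobacterium tuberculosis, read after 3 days in glucose-containing 7H9 medium; the read-out is not stated. Concentration: 50 µM. Higher reads as more growth inhibition (inferred: compounds with an IC50 in retests scored well above the rest). About 69,000 compounds were tested under these conditions; 1.1% (about 760) showed 50% or more at least once.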
B: 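Growth of Mycobacterium tuberculosis over 4 days (cholesterol / DPPC medium with tyloxapol); the read-out is not stated. Concentration: 50 µM. Direction is inferred from retests: higher values go with more growth inhibition. Size under these conditions: about 69,000 compounds, about 370 of them at 50% or above in at least one test.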

The filed quantity is “Percent Effect” (%).
How 0% and 100% were set is not recorded. Most values in the screen are low, and negative values occur.
The compounds are a random part of those screened.
Two or more numbers in one place are separate tests of the same structure; such repeats can differ widely.

Compound	A	B
COc1ccc(CN2CC[C@H](NC(C)=O)[C@@H](O)CC2)c(OC)c1	2.147	5.812
[H][C@]12CCN(C(=O)c3cc(C)on3)CC[C@@]1([H])S(=O)(=O)N(CCOC)C2	-20.35	1.658
CC(C)CCNC(=O)c1ccc2c(=O)n(-c3ccccc3)cnc2c1	-19.38	-17.66
CC(=O)N1CCc2c(nc(N(C)C)nc2NCCc2cccs2)C1	24	17.16
Cc1cccc2c1ccn2CC(=O)O	-17.32	-21.42
COCCN1CCc2ncnc(N(C)C)c2CC1	-3.376	-15.35
O=C(O)C(F)(F)F.[H][C@]12CCCN(CC3CC3)[C@@]1([H])CN(C(=O)c1ccco1)C2	-29.6	-6.065
Cc1cnn(CC2CCCN2C(=O)Cc2cn3ccsc3n2)c1 (centres unmarked)	0.3067	21.49
O=C(NCCN1CCOCC1)c1ccn(-c2ccccc2F)n1	0.8884 and -29.72	-30.33
O=C(O)C(F)(F)F.[H][C@@]12CCN(C3CCC3)C[C@]1(C(=O)NCc1ccco1)CCO2	2.277 and -9.081	-7.321
CN(C)c1ccc(CNC2(c3ccc(F)cc3)CCOCC2)cc1F	-5.375	-2.966
C1CC(c2noc(C3CC3)n2)CN(CCOCC2CC2)C1 (centres unmarked)	-42.56	3.754 and 0.3684
N#Cc1ccc(S(=O)(=O)Nc2ccccc2C#N)cn1	34.41	-8.668
[H][C@]12CC[C@]([H])(CN(C(=O)Cn3c(C)cc(C)nc3=O)C1)N(CCC)C2	-3.477	-0.85
CC(=O)c1cccc(OCCCC(=O)N(C)C2CCN(C)CC2)c1	-8.525	3.562
CC(C)(C)c1cc(=O)n2c(n1)SCC(C(=O)NCc1cccs1)C2 (centres unmarked)	7.93	-2.899
O=C(NCCNc1ccc(C(F)(F)F)cn1)c1cncc(Br)c1	5.744	-20.31
CCCN1CCC(NC(=O)c2csc(C)c2-c2ccc(C)cc2)CC1	38.29	21.53
Cc1nc(CN(C)C2CCN(CC(=O)N3CCOCC3)C2)no1 (centres unmarked)	-9.095	-14.73
Cc1nc(Cn2cnc3c(c(Br)nn3C)c2=O)cs1	6.175 and -11.11	-3.743
COc1cc(OC)cc(C2CC(=O)Nc3c2nc2n3CCCC2)c1 (centres unmarked)	-7.353	-8.283
Cc1nc(C2CCCN(C(C)C)C2)sc1Br (centres unmarked)	10.12	4.481
Cc1nc(N2CCN(C(=O)c3ccsc3)CC2)c2cnn(C)c2n1	29.12	-3.763
COc1cc2ccn(CCCO)c(=O)c2cc1F	-18.7	-0.122
Cc1noc(Cl)c1CCC(=O)N1CCN(Cc2ccncc2)CC1	24.24	9.589
O=C(CS(=O)(=O)Cc1ccccc1)NCc1ccccc1F	26.82	-0.2974
Cc1noc(C2CCCN(C(=O)c3ccc(F)cc3F)C2)n1 (centres unmarked)	-22.77	16.21
CCc1nc(C)c(C(=O)NCCN2CCN(C(C)=O)CC2)s1	-8.442	-2.393
FC(F)(F)c1nc(NC2CCc3ncnn3C2)c2ccccc2n1 (centres unmarked)	-9.651	2.827
CN(C)CCN1CCN(Cc2cccs2)Cc2cccnc21.O=C(O)C(F)(F)F.O=C(O)C(F)(F)F.O=C(O)C(F)(F)F	-3.657	-15.63
CC(NC(=O)NCCCn1cccn1)c1cccnc1 (centres unmarked)	-19.67	-13.18
CC(C)(C)c1cn2nc(N3CCCC3Cn3cncn3)sc2n1 (centres unmarked)	-3.701	12.17
CC(=O)N1CCN(C2CCCCc3ccccc32)CC1 (centres unmarked)	-13.24	8.334
Cc1noc(-c2ccnc(Oc3ccc(CN4CCCC4)cc3C)c2)n1	48.55	26.76
CC(C)c1nnc(N2C[C@@H](CN(C)CCO)[C@@H](CO)C2)s1	-41.51	-33.08
N#Cc1cc(NC(=O)c2cscn2)ccc1N1CCC(O)CC1	8.197 and 15.55	35.92
COCCn1nc(C(=O)N(C)Cc2cccnc2)ccc1=O	17.53	17.94
COCc1c(Br)cccc1NC(=O)CC(F)(F)F	2.343 and -27.57	-20.27
CC(=O)N1CCCC(C(=O)N2CCN(c3cnn(C)c(=O)c3)CC2)C1 (centres unmarked)	23.7	9.713 and -3.298
Cc1nn(C)cc1-c1cc(C(=O)NCC(C)(C)c2ccccc2F)n[nH]1	-17.24	0.8222 and 10.95
Cc1ccnc(Cn2cc(-c3cccc(C(C)N(C)C)c3)nn2)c1 (centres unmarked)	22.89	-1.423 and 9.231
COc1ncnc2c1CCN(CC1CCOC1)CC2 (centres unmarked)	2.39	-3.717 and -3.408
CC(=O)Nc1ccc(CN(C)Cc2snnc2C)cc1	1.117	-14.85
O=C(COc1ccc(Cl)cc1Cl)N1CCCSCC1CN1CCOCC1 (centres unmarked)	1.471 and 34.33	4.653
Nc1ncccc1CN1CCOCC1CC(=O)NCc1ccccn1 (centres unmarked)	-28.91 and -8.529	-11.36
Cn1cc(CNC2CCc3c(ccc(=O)n3Cc3cccnc3)C2)cn1.O=C(O)C(F)(F)F.O=C(O)C(F)(F)F (centres unmarked)	-0.7713	-26.26
O=C(NC1CCCCC1)N1CCCC1c1nnc2n1CCNC2 (centres unmarked)	-1.804	-3.55
O=C(NCCc1nnc2n1CCCCC2)N1CCC2(CCOC2)C1 (centres unmarked)	7.231	-8.516
O=C(O)C(F)(F)F.[H][C@]12CCC[C@@H](CN3CCOCC3)[C@@]1([H])CN(c1ccc(C)nn1)C2	-5.534 and 21.85	-6.818
Cn1cc(-c2c(C#N)c(N)nc3c2CCc2[nH]ccc2-3)cc1C#N	-76.26 and -13.45	44.7 and -38.78
CC(C)NC(=O)C1Cc2nc(-c3ccsc3)sc2N1CC1CC1 (centres unmarked)	-9.822	-5.139
COc1ccc(C(=O)COc2coc(CN3CCSCC3)cc2=O)cc1	0.1971	1.844
NC(=O)C1CCN(C(=O)c2ccc(Sc3ccccn3)cc2)CC1	10.78 and 1.293	-15.41
COc1ccc(C2(C(=O)N3CC(c4cccnc4)C3)CC2(C)C)cc1 (centres unmarked)	4.912 and 5.822	11.31
Cc1cnc(N2CCCC3(CCCN3CC(=O)N(C)C)C2)nc1.O=C(O)C(F)(F)F (centres unmarked)	-7.075 and -7.708	-1.577

The first 4 entries again:

COc1ccc(CN2CC[C@H](NC(C)=O)[C@@H](O)CC2)c(OC)c1 gave A: 2.147%; B: 5.812%.
[H][C@]12CCN(C(=O)c3cc(C)on3)CC[C@@]1([H])S(=O)(=O)N(CCOC)C2 gave A: -20.35%; B: 1.658%.
CC(C)CCNC(=O)c1ccc2c(=O)n(-c3ccccc3)cnc2c1 gave A: -19.38%; B: -17.66%.
CC(=O)N1CCc2c(nc(N(C)C)nc2NCCc2cccs2)C1 gave A: 24%; B: 17.16%.